{"source": "PubChem BioAssay AID504444", "about": "(National Center for Advancing Translational Sciences (NCATS), 2011)", "note": "In all, about 360,000 compounds went through this assay and about 7,500 (2.1%) were called active. Inconclusive results, whose numbers are uncertain, are shown with a selection of clear calls. The call rests on the fitted dose curve; in most records, active means well fitted inhibition curve with a large enough effect; inconclusive means small, poorly fitted or top-dose-only effect, or effect the other way; inactive means flat fitted curve, though single readings scatter. Potencies of inconclusive entries are doubtful fits and often do not repeat.", "data": [{"assay": "Nrf2 qHTS screen for inhibitors; further: nearly all actives have a fitted effect of over 60% in size; further: potency means the concentration at half of the fitted maximal effect; on activity change, negative = inhibition: on the % scale 0 is the no-effect control and ±100 the full control effect", "settings": "A549 ARE-Fluc reporter, luciferase luminescence, 18-24 h; activity change, negative = inhibition: at 46 µM (top of the series)", "in_short": "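Reporter: ARE-Fluc in A549. Exposure: 18-24 h, 37 °C, 5% CO2, 5% FBS OPTI-MEM. Readouts: fluorescent cytotoxicity (CellTiter-Fluor), then luminescent Nrf2 signal after BugLite.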", "values": [{"compound": "CCCCCC(=O)N1CC2(CC(c3cccc(NC(=O)COc4ccc(Cl)cc4)c3)=NO2)C[C@@H]1C(N)=O", "note": "(stereo partly drawn)", "Potency": "inconclusive: 29.1 µM [falling, single point]"}, {"compound": "O=C(/C=C/c1ccc(-c2ccc(F)cc2)o1)N1CCCC1", "Potency": "inconclusive: 5.8 µM [activator, full curve]"}, {"compound": "Cc1ccc2oc(-c3cccc(NC(=O)c4ccc(Br)o4)c3)nc2c1", "Potency": "inconclusive: 20.6 µM [activator, single point]"}, {"compound": "Cn1c(=O)c2[nH]c(SCCN3CCOCC3)nc2n(C)c1=S", "activity change, negative = inhibition": "inactive: -11.3%"}, {"compound": "O=P(CCCCCCCCCP(=O)(c1ccccc1)c1ccccc1)(c1ccccc1)c1ccccc1", "Potency": "inconclusive: 29.1 µM [falling, single point]"}, {"compound": "COC(=O)c1ccc(C)c(NS(=O)(=O)c2ccc(OC)cc2)c1", "Potency": "inconclusive: 4.11 µM [activator, full curve, poor fit]"}, {"compound": "CCCC(=O)Nc1nc(-c2ccc(OC)cc2)cs1", "Potency": "inconclusive: 29.1 µM [falling, single point]"}, {"compound": "Oc1ccc(-c2ccccc2F)c2cccnc12", "Potency": "inconclusive: 18.4 µM [falling, partial curve]"}, {"compound": "Cc1nc(C)c(-c2ccc(SCC(=O)Nc3cccc(F)c3)nn2)s1", "Potency": "active: 14.6 µM"}, {"compound": "CC(C)(C)c1cc(NCc2ccccn2)n2ncc(-c3ccccc3)c2n1", "Potency": "inconclusive: 20.6 µM [falling, single point]"}, {"compound": "COC(=O)c1cccc(NC(=O)C2COc3ccccc3O2)c1C", "note": "(stereo not drawn)", "Potency": "inconclusive: 16.4 µM [activator, partial curve]"}, {"compound": "O=C1C=C(c2ccc3ccccc3c2)C[C@@H](c2ccc(F)cc2)C1", "Potency": "inconclusive: 23.1 µM [activator, single point]"}, {"compound": "COc1cccc2c1cc1c(=O)n(CC(=O)N3CCN(c4ccccc4F)CC3)nc(C)n12", "activity change, negative = inhibition": "inactive: -6.82%"}, {"compound": "Cc1[nH][nH]c(=O)c1C(c1ccc(O)c(Br)c1)c1c(C)[nH][nH]c1=O", "Potency": "inconclusive: 14.6 µM [falling, single point]"}, {"compound": "C=C(C)COc1ccc2c(CC)cc(=O)oc2c1", "Potency": "inconclusive: 13 µM [falling, partial curve, poor fit]"}, {"compound": "C=CCCC(=O)N1CCC(n2nccc2NC(=O)c2ccc(OC)cc2)CC1", "Potency": "inconclusive: 8.2 µM [activator, partial curve]"}, {"compound": "Cc1ccccc1OCC(O)Cn1c(SC(C)C)nc2c1c(=O)[nH]c(=O)n2C", "note": "(stereo not drawn)", "Potency": "inconclusive: 20.6 µM [falling, partial curve, poor fit]"}, {"compound": "COc1ccccc1C(=O)Nc1cccc(SC)c1", "Potency": "inconclusive: 2.06 µM [activator, full curve]"}, {"compound": "COc1ccc(C2CC(c3ccccc3C(F)(F)F)=NN2c2ccc(S(N)(=O)=O)cc2)cc1", "note": "(stereo not drawn)", "Potency": "inconclusive: 18.4 µM [falling, single point]"}, {"compound": "C/C(N)=C(/C#N)C(=O)COC(=O)C(c1ccccc1)c1ccccc1", "Potency": "inconclusive: 25.9 µM [activator, single point]"}, {"compound": "Cc1ccc(OCC(=O)Nc2cc(S(=O)(=O)N3CCOCC3)ccc2N2CCCC2)cc1", "activity change, negative = inhibition": "inactive: 15.4%"}, {"compound": "C/C(=C\\C(=O)c1ccccc1)Nc1ccc2c(c1)OCO2", "Potency": "inconclusive: 14.6 µM [activator, partial curve, poor fit]"}, {"compound": "Cc1cc(C)n(C(=O)/C(C#N)=N\\Nc2ccccc2[N+](=O)[O-])n1", "Potency": "inconclusive: 7.31 µM [falling, partial curve]"}, {"compound": "COc1cc(NC(=O)Cn2ccn(Cc3ccccc3OC)c(=O)c2=O)cc(OC)c1", "activity change, negative = inhibition": "inactive: 7.65%"}, {"compound": "Cc1ccc(C)c(N2CCN(C(=O)Cc3ccc(-n4c(=O)[nH]c5ccsc5c4=O)cc3)CC2)c1", "Potency": "inconclusive: 14.6 µM [falling, partial curve]"}, {"compound": "O=C(CN1CCN(Cc2ccc(F)cc2Cl)S1(=O)=O)Nc1ccc(F)cc1", "activity change, negative = inhibition": "inactive: -17.7%"}, {"compound": "O=C(/C=C/c1ccccc1Cl)NCCc1ccccc1", "Potency": "inconclusive: 1.46 µM [activator, full curve]"}, {"compound": "Cc1cccc(-n2c(-c3ccco3)nc3c(cnn3-c3ccccc3C)c2=O)c1", "Potency": "active: 20.6 µM"}, {"compound": "COc1cc2c(C#N)c(N3CCN(c4ccccc4OC)CC3)nc(N)c2c(N)n1", "Potency": "active: 16.4 µM"}, {"compound": "CCN(C(=O)COC(=O)c1c(C)nn(-c2ccccc2)c1C)C1CCS(=O)(=O)C1", "note": "(stereo not drawn)", "Potency": "inconclusive: 16.4 µM [activator, partial curve]"}, {"compound": "Cc1ccc(Cn2nc(C)c(NC(=O)c3cc(-c4ccc(F)cc4)on3)c2C)cc1", "activity change, negative = inhibition": "inactive: -29.7%"}, {"compound": "COC(=O)CN(c1ccccn1)S(=O)(=O)c1ccccc1", "activity change, negative = inhibition": "inactive: -2.27%"}, {"compound": "COc1cc(/C=C/C(=O)Nc2ccc(C)cc2)cc(OC)c1OC", "activity change, negative = inhibition": "inactive: -22.5%"}, {"compound": "CC(=O)Nc1ccccc1OCc1cc(=O)n2c3c(sc2n1)CCCC3", "activity change, negative = inhibition": "inactive: 13%"}, {"compound": "CC1CCCCC1N1CN=C(Nc2nc3ccccc3s2)NC1", "note": "(stereo not drawn)", "Potency": "inconclusive: 3.66 µM [activator, partial curve, poor fit]"}, {"compound": "Cc1ccc(S(=O)(=O)N2CCN(S(=O)(=O)c3ccc(C)cc3)C2)cc1", "Potency": "inconclusive: 10.3 µM [falling, partial curve, poor fit]"}, {"compound": "Cc1ccc(C)c(NC(=O)c2cccc(Oc3ccc([N+](=O)[O-])cc3Cl)c2)c1", "Potency": "inconclusive: 4.61 µM [falling, partial curve]"}, {"compound": "CCN(CC)C(=O)C1CCN(Cc2ccc(Br)cc2)CC1", "Potency": "inconclusive: 2.06 µM [falling, full curve, poor fit]"}, {"compound": "COc1ccc(-c2nc(Cn3c(SCc4cccc(Cl)c4)nc4ccncc43)c(C)o2)cc1", "Potency": "inconclusive: 29.1 µM [falling, single point]"}, {"compound": "CCOC(=O)c1sc(-c2ccc(C)cc2)c(C#N)c1C", "Potency": "inconclusive: 1.46 µM [activator, partial curve, poor fit]"}, {"compound": "Cn1c(/C(C#N)=C/Nc2ccccn2)nc2ccccc21", "Potency": "inconclusive: 16.4 µM [activator, partial curve]"}, {"compound": "Cc1ccc(S(=O)(=O)N2CCCOC2CNC(=O)C(=O)NCCC2=CCCCC2)cc1", "note": "(stereo not drawn)", "Potency": "inconclusive: 29.1 µM [falling, single point]"}, {"compound": "CC1=C(c2ccc(F)cc2)S(=O)(=O)N=C1N1CCC(C(=O)NCCc2ccco2)CC1", "Potency": "inconclusive: 29.1 µM [activator, single point]"}]}]}
